Library screening results

A: 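Whole-cell assay for inhibitors of Mycobacterium tuberculosis growth, labelled Cornell in the record; the read-out is not stated. The concentration is filed as 10 mM, unlikely as a test dose, so the dose is not known. Higher means stronger inhibition (inferred from two other growth screens of the library). Of about 53,000 compounds tested this way, about 900 (1.7%) reached 50% or more in at least one test.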
B: 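Assay on Mycobacterium tuberculosis, filed only as a heat shock assay from Cornell; the read-out is not stated. The concentration is filed as 10 mM, unlikely as a test dose, so the dose is not known. Higher reads as stronger inhibition (inferred: compounds with an IC50 in retests scored well above the rest). Size under these conditions: about 69,000 compounds, about 930 of them at 50% or above in at least one test.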

Each number is a percent effect as filed. How 0% and 100% were set is not recorded. Most values in the screen are low, and negative values occur. This is an unselected part of the compounds tested. A dash means the value is not listed here; it may have been measured.

compound	A	B
Cl.N#CC1(C(=O)NCC2CCC3(CCNCC3)O2)CC1 (centres undefined)	-	-17.78
CCO[C@@H]1CCN(C(=O)N(C)C)[C@@H]1Cc1cnn(C)c1	-5.309	3.811
Cc1noc(C)c1-c1cnc(CC2CCN(C(=O)c3cc[nH]n3)C2)cn1 (centres undefined)	-4.962	-1.64
Cc1nc(CN2CCC(O)(c3ccccc3F)CC2)c2ccccn12.O=C(O)CC(O)(CC(=O)O)C(=O)O	18.56	-1.202
COc1ccc(C(=O)N2CCCC(n3nc(C)nc3C)C2)c(OC)c1 (centres undefined)	-	-27.11
CS(=O)(=O)Cc1noc(CN2CCN(c3ccccc3Cl)CC2)n1	-0.9156	-17.8
CCOc1ccc(CN(CC)C(=O)c2ccc(C)[nH]c2=O)cc1OC	-	-21.44
CCC(C(=O)NC1CCCC1)n1ccc2ncccc2c1=O (centres undefined)	12.89	12.54
CSCC(=O)N1CCCC1c1noc(C2CC2)n1 (centres undefined)	13.01	-3.43
O=C(NCC1CC1)c1c2c(N3CCCC3)ncnc2n2ccccc12	-46.94	-39.43
CC(C)NC(=O)N1CCCn2cnc(CN3CCCC3=O)c2C1	-	-8.639
CCn1cc(NC(=O)NCC(O)c2ccccc2)cn1 (centres undefined)	-0.5564	20.85
CCc1nc(CN(C)C2CCN(CCS(C)(=O)=O)C2)no1 (centres undefined)	-	-5.117
Cc1nc(CN[C@H]2CCCN(C(=O)OC(C)(C)C)C2)cs1	24.66	-34.46
Cc1cc(C)n(CC2CN(Cc3noc(C)n3)CCO2)n1 (centres undefined)	-	-8.618
Cc1noc(C)c1C(=O)NCCc1cccs1	-13.98	-10.58
Cc1n[nH]c(C)c1CNc1nc(-c2ccco2)nc2c1CCNCC2	-	-50.41
CN(C)S(=O)(=O)c1ccc(CN2CCCC2c2ccsc2)o1 (centres undefined)	32.46	-11.25
Cc1cnc(C(=O)N2CCN(c3ncc4c(n3)CCOC4)CC2)cn1	56.71	-17.93
Cc1cc2c(cc1C(=O)N1CC[C@H](CO)[C@@H](O)C1)OCCO2	27.8	-8.063
CS(=O)(=O)NCc1cn2c(n1)CN(Cc1cccnc1)CC2.O=C(O)C(F)(F)F.O=C(O)C(F)(F)F	-17.89	42.6
CCc1cc(C(F)(F)F)n2nc(C3CCCN3C3CCSCC3)cc2n1.O=C(O)CC(O)(CC(=O)O)C(=O)O (centres undefined)	13.24	5.555
Cc1cccc(S(=O)(=O)NC(=O)CN(C)Cc2ccccc2)c1	6.039	-7.172
CC(C)OCCC(=O)Nc1c(-c2ccc(F)cc2)ncn1C	-0.1169	-10.41
Cc1ccc(-c2nn3c(nc2=O)-c2ccccc2NC3C(=O)O)cc1C (centres undefined)	-43.73	2.389
Cc1ncc(C(=O)NC2CCN(CCOc3ccc(Br)cc3)CC2)s1	38.47	-7.49
c1csc(-c2noc(CCCNC3CCc4ncnn4C3)n2)c1 (centres undefined)	27.08	-8.27
CCCc1nnc(NCCc2noc(C3CCCC3)n2)o1	-14.43	2.636
Cc1cc(C)n(C2CN(CC(O)Cn3cccn3)C2)n1 (centres undefined)	26.36	-17.04
CCC1CN(C(=O)c2ccc(=O)[nH]n2)CCC(=O)N1Cc1ccccc1 (centres undefined)	-8.612	3.349
CN(C)C(CNC(=O)c1ncoc1-c1ccccc1)c1ccsc1 (centres undefined)	2.101	11.88
CC(=O)N1CCCN(C(=O)NCc2ccccn2)CC1	-20.35	8.728
CCS(=O)(=O)N1C[C@@H](C(=O)NC(C)C)[C@@]2(Cc3ccccc3C(=O)N2)C1	50.91	5.643
Cc1cc(NC(=O)c2ccc(-n3ncc(C#N)c3N)cc2)n(C)n1	-	-10.96
CC(=O)NCC1CCN(c2cc(C(C)C)nc3ccnn23)CC1	-	8.01
CNc1cncc(C2CCCN(S(C)(=O)=O)C2)n1 (centres undefined)	1.817	-10.77
O=C(CCC1CCN(C(=O)c2cnco2)CC1)NCc1cccc(Cl)c1	23.08	22.6
CCCn1nc(-c2nc(C3CC3)no2)ccc1=O	-28.54	-38.45
O=C(c1ccco1)N1CCCC2(CN(Cc3ccoc3)CCO2)C1 (centres undefined)	3.651	-57.1
CC(NC(=O)c1cc(Br)c2c(c1)OCCO2)C(N)=O (centres undefined)	-	-13.15
COC(=O)c1sccc1S(=O)(=O)N1CCc2c(ncnc2N(C)C)C1	5.557	-11.48
Cc1ccccc1OCCN1CCCC1CS(N)(=O)=O (centres undefined)	27.06	-33.5
Cc1[nH]ncc1C(=O)N1CCCC1c1noc(C2CC2)n1 (centres undefined)	-	-17.19
Cc1cc2nc(SCC(=O)N3CCOCC3)n(CCC(C)C)c(=O)c2[nH]1	13.24	-12.93
Cc1ccc(NC(=O)C(C)n2ccc(C(F)(F)F)n2)nc1 (centres undefined)	23.19	-18.61
O=c1c2sccc2nc2n1CCN(Cc1cccs1)CC2	10.13	-11.24
CCc1nc(CN2CCOC(Cn3nc(C)cc3C)C2)no1 (centres undefined)	-	-22.1
O=C(CNc1cc2c(cc1Cl)OCCCO2)NCc1ccc(F)cc1	-2.409	-17.3
COc1ccc(C2CCCN2Cc2ccc(S(=O)(=O)N(C)C)o2)cc1 (centres undefined)	1.897	-5.981
Cc1cnn(CCC(=O)NS(=O)(=O)N2CCCc3ccccc32)c1	6.089	-1.036
Cn1cccc1C(=O)N1CCC2(CCCN(CC3CCC3)C2=O)C1 (centres undefined)	5.31	5.951
NC(=O)C1CCN(C(=O)NCc2ccccc2-n2cccn2)C1 (centres undefined)	5.932	-1.412
Cc1ccc(-c2nc(CN3CCn4c(C)nnc4C3)cs2)o1	-55.67	-2.255
CC(C)C(=O)N1CCN(Cc2ccccn2)CC2(CC(=O)N(C)C2)C1.O=C(O)C(F)(F)F.O=C(O)C(F)(F)F (centres undefined)	-19.09	-3.72
N#Cc1ccc(CN(CC(N)=O)Cc2cccc(F)c2)cc1	-11.78	4.005
Cc1cccc(-c2nc(C)nn2CC(=O)N(C)C2CC2)c1	8.499	4.733
CCC(CO)N(Cc1ccco1)Cc1c(C)nn(C)c1Cl (centres undefined)	15.41	-1.018
CCOCCN(C)C(=O)Nc1cccc2c1CCN(CC)C2	1.431	7.348
Cc1csc(N2CCN(C(=O)CCc3nccs3)CC2)n1	22.41	33.82
[H][C@@]12C[C@@H](O)C[C@]1([H])CN(Cc1ccc(C(C)(C)C)cc1OCC(N)=O)C2	6.768	4.656
Cc1nocc1C(=O)N1CCCC2(CCN(c3ccsc3)C2=O)C1 (centres undefined)	7.63	-8.447

The first 5 entries again:

Result for Cl.N#CC1(C(=O)NCC2CCC3(CCNCC3)O2)CC1 (centres undefined) was B: -17.78%.
Result for CCO[C@@H]1CCN(C(=O)N(C)C)[C@@H]1Cc1cnn(C)c1 was A: -5.309%; B: 3.811%.
Result for Cc1noc(C)c1-c1cnc(CC2CCN(C(=O)c3cc[nH]n3)C2)cn1 (centres undefined) was A: -4.962%; B: -1.64%.
Result for Cc1nc(CN2CCC(O)(c3ccccc3F)CC2)c2ccccn12.O=C(O)CC(O)(CC(=O)O)C(=O)O was A: 18.56%; B: -1.202%.
Result for COc1ccc(C(=O)N2CCCC(n3nc(C)nc3C)C2)c(OC)c1 (centres undefined) was B: -27.11%.

Measurements from “University of Dundee, Small-Polar-MMV Screening Library” (2021), ChEMBL document CHEMBL3988442.